Our source for the Binding parameter n values is PMC9408963 (International Journal of Molecular Sciences, 2022).

Molecules are shown by their SMILES. Counter-ions that a name gives are not always drawn.

The first data set relates to XooFtsZ. The data set is classed as binding, Xanthomonas oryzae pv. oryzae. The conditions noted are these: 10 μM XooFtsZ, 25 °C, pH 7.4.
In turn, `CCCCC(CC)C(=O)Oc1c(OC)cc(C2c3cc4c(cc3C(O)C3COC(=O)C23)OCO4)cc1OC` (stereo not drawn) [B2] returned a Binding parameter n of 0.92.
Turning to `COc1ccc2cc3[n+](cc2c1OC)CCc1cc2c(cc1-3)OCO2` [Berberine, Berberine hydrochloride], the Binding parameter n is 0.81.
Regarding `COc1cc([C@@H]2c3cc4c(cc3C[C@H]3COC(=O)[C@@H]32)OCO4)cc(OC)c1OC` [Deoxypodophyllotoxin], the Binding parameter n is reported as 0.48.
Turning to `COc1cc([C@@H]2c3cc4c(cc3[C@@H](O[C@@H]3O[C@@H]5CO[C@@H](C)O[C@H]5[C@H](O)[C@H]3O)[C@H]3COC(=O)[C@H]23)OCO4)cc(OC)c1O` [Etoposide], the Binding parameter n was found to be 0.82.
`COc1cc([C@@H]2c3cc4c(cc3[C@@H](O[C@@H]3O[C@@H]5CO[C@@H](c6cccs6)O[C@H]5[C@H](O)[C@H]3O)[C@H]3COC(=O)[C@H]23)OCO4)cc(OC)c1O` [Teniposide] showed a Binding parameter n of 0.61.

Still in this data set, the particulars now being: pH 7.4.
Compound `COc1cc(C2c3cc4c(cc3C(O)C3COC(=O)C23)OCO4)cc(OC)c1O` (stereo not drawn) [DMEOP, 4′-demethylpodophyllotoxin] displayed a Binding parameter n of 0.79.
Turning to `COc1cc([C@@H]2c3cc4c(cc3[C@@H](O)[C@H]3COC(=O)[C@H]23)OCO4)cc(OC)c1O` [DMEP, 4′-demethylepipodophyllotoxin], the Binding parameter n amounted to 0.92.
Consider `COc1cc([C@@H]2c3cc4c(cc3[C@H](O)[C@H]3COC(=O)[C@@H]23)OCO4)cc(OC)c1OC` [Picropodophyllotoxin], for which the Binding parameter n amounted to 0.63.
The compound `COc1cc([C@@H]2c3cc4c(cc3[C@H](O)[C@H]3COC(=O)[C@H]23)OCO4)cc(OC)c1OC` [Podophyllotoxin] yielded a Binding parameter n of 0.54.
